No constants are given. Whether binding was seen depends on the method and setting. Some entries that bind do so weakly or less than the wild type. Sequences can lack the tags named with a protein.
What was measured:
[1] = biological target: AviTag-OAZ(K153A,V198A)-GSY-SPM (human | Neisseria meningitidis serogroup B (strain MC58)) (UniProt P54368); assay: cross-linking; NeissLock: Ca2+-induced aspartic anhydride on OAZ reacts with the docked partner; purified proteins mixed at 10 µM each or as indicated (AZI 2.5 µM each; Fig. 4b 0.5 µM each; 30 µM ODC with 10 µM OAZ-Y-SPM), 37 °C, HBS pH 7.4 with 2 mM TCEP, 10 mM CaCl2 unless varied (pH 6.5-8.5, 0.5-10 mM Ca2+, TBS, lyophilised probe); SDS-PAGE with Coomassie, intact ESI-MS, tryptic LC-MS/MS; both purified
[2] = biological target: AviTag-OAZ(K153A,A215R)-GSY-SPM (human | Neisseria meningitidis serogroup B (strain MC58)) (UniProt P54368); assay: as above

The chains behind the UniProt entries cited, without tags or fusion partners. Where a name states a change or a piece, a line headed by the entry shows the natural chain unless it says otherwise.
UniProt P54368: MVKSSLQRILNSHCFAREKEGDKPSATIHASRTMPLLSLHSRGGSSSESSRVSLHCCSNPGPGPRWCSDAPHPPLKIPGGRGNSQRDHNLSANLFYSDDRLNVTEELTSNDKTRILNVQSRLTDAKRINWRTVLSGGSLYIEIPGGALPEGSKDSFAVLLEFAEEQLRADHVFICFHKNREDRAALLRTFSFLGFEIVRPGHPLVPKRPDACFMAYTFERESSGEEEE

B1: His6-ODC-Ctag (human Ornithine Decarboxylase) (enzyme, UniProt P11926 2-421)
chain: NNFGNEEFDCHFLDEGFTAKDILDQKINEVSSSDDKDAFYVADLGDILKKHLRWLKALPRVTPFYAVKCNDSKAIVKTLAATGTGFDCASKTEIQLVQSLGVPPERIIYANPCKQVSQIKYAANNGVQMMTFDSEVELMKVARAHPKAKLVLRIATDDSKAVCRLSVKFGATLRTSRLLLERAKELNIDVVGVSFHVGSGCTDPETFVQAISDARCVFDMGAEVGFSMYLLDIGGGFPGSEDVKLKFEEITGVINPALDKYFPSDSGVRIIAEPGRYYVASAFTLAVNIIAKKIVLKEQTGSDDEDESSEQTFMYYVNDGVYGSFNCILYDHAHVKPLLQKRPKPDEKYYSSSIWGPTCDGLDRIVERCDLPEMHVGDWMLFENMGAYTVAAASTFNGFQRPTIYYVMSGPAWQLMQQFQ
binding [1]: binds
binding [2]: binds

From PMC7846742
